The name of at least one read-out is uncertain.
Tested on: X-linked ichthyosis with severe dry skin
Assay: Topical treatment of X-linked ichthyosis / severe dry skin, clinical evaluation
Assay type: in vivo, human
Conditions: 5% solution once every other day under occlusion
Excerpt: For example, human subjects having severe dry skin or ichthyosis, topically applied 1%-5% N-(phosphonomethyl)-glycine creams to lesions for 2 to 3 weeks. After 2 to 3 weeks of topical application, the thick and scaly skin disappeared and the skin became smooth and normal in appearance. Clinical evaluation was judged to be 90% to 100% improvement compared to the untreated condition or when using a vehicle control.
The present invention will now be described in more detail with reference to the following non-limiting examples. In the initial tests for comparative studies, a control vehicle was always included. It was discovered that all the vehicle controls gave the same results as that of the untreated skin sites; no detectable effects of the controls have been found as judged by clinical evaluation.
For subjective disorders such as pain, itch or the like, the therapeutic effects were evaluated or judged by the subjects or patients; for example, if the pain or itch had disappeared within hours or days. For other detectable symptoms or syndromes, the therapeutic effects or improvements were evaluated or judged by medical professionals.
N-(phosphonomethyl)-glycine (5 g) was suspended in water (30 ml) and propylene glycol (10 ml), and concentrated ammonium hydroxide (2 ml) was added with stirring. […]

For `NC(=O)CC(NCP(=O)(O)O)C(=O)O` (racemic) [N-(phosphonomethyl)-DL-asparagine], the “improvement in contrast to untreated or vehicle control, clinical evaluation” value (after one week) was 75% and the “improvement in contrast to untreated or vehicle control, clinical evaluation” value (after three weeks) was 100%.
